Experimental data as given in PubChem BioAssay AID330 (DTP/NCI, 2004).
The list does not hold the whole screen: it is rich in T/C values a quarter to a half above the control, in often repeated tests (any T/C) and in doses without a T/C. Other doses and runs of a compound stand elsewhere. T/C: endpoint of the treated group in % of that of the vehicle group. Some entries give survivors of the animals treated and no T/C: the source holds a T/C of zero for them, seemingly a mark for toxic or unscored doses. Some doses without a T/C left all or most animals alive at the check, yet need not have been tolerated: survival well below the control is almost never listed, so the zero probably covers shortened survival too. Counts of survivors are from the toxicity check (mostly the fifth day) where no day follows; animals may have died later. Schedule codes are those of the source, read here as Q, the interval in days (D) or hours (H), X, the number of doses. Additions like (4×) give the number of equal values in this list. For survival time, this PubChem deposit counts one and a half times the control or more as active, and values a quarter to a half above the control carry no call in these data; other NCI protocols may use other cut-offs. Some entries hold several experiments; the results are listed from low to high. Some T/C values are followed by the survivors on the day toxicity was checked, most often the fifth; without a count, all were alive then.

Test system: P388 leukemia ip, CD2F1 mice, survival T/C
Assay: NCI In Vivo Anticancer Drug Screen. Data for tumor model P388 Leukemia (intraperitoneal) in CD2F1 (CDF1) mice
Details: T/C endpoint: median survival time, higher T/C = longer survival
[1] = dose: 0.1 mg/kg/injection, schedule: Q01DX009 (ip), vehicle: water

SMILES: Cc1c2oc3c(C)ccc(C(=O)N[C@@H]4C(=O)N[C@H](C(C)C)C(=O)N5CCC[C@H]5C(=O)N(C)CC(=O)N(C)[C@@H](C(C)C)C(=O)O[C@H]4C)c3nc-2c(C(=O)N[C@@H]2C(=O)N[C@H](C(C)C)C(=O)N3CCC[C@H]3C(=O)N(C)CC(=O)N(C)[C@@H](C(C)C)C(=O)O[C@H]2C)c(N)c1=O
- T/C (dose: 0.01 mg/kg/injection, schedule: Q01DX009 (ip), vehicle: water, evaluated on day 5): 101, 156, 162 % of control
- T/C (dose: 0.01 mg/kg/injection, schedule: Q01DX009 (ip), vehicle: water, evaluated on day 30): 136, 153, 157 % of control
- T/C (dose: 0.01 mg/kg/injection, schedule: Q01DX009 (ip), vehicle: water, evaluated on day 43): 166 % of control
- T/C (dose: 0.01 mg/kg/injection, schedule: Q01DX009 (ip), vehicle: water, evaluated on day 53): 162 % of control
- T/C (dose: 0.01 mg/kg/injection, schedule: Q01DX009 (ip), vehicle: water, evaluated on day 67): 101 % of control
- T/C (dose: 0.02 mg/kg/injection, schedule: Q01DX009 (ip), vehicle: water, evaluated on day 4): 211 % of control
- T/C (dose: 0.02 mg/kg/injection, schedule: Q01DX009 (ip), vehicle: water, evaluated on day 5): 100, 151, 154, 166 (2×), 173, 180, 182, 191, 196, 207, 252 % of control
- T/C (dose: 0.02 mg/kg/injection, schedule: Q01DX009 (ip), vehicle: water, evaluated on day 53): 180 % of control
- T/C (dose: 0.02 mg/kg/injection, schedule: Q01DX009 (ip), vehicle: water, evaluated on day 67): 154 % of control
- T/C (dose: 0.02 mg/kg/injection, schedule: Q01DX009 (ip), vehicle: water, evaluated on day 87): 196 % of control
- T/C (dose: 0.02 mg/kg/injection, schedule: Q01DX009 (ip), vehicle: water, evaluated on day 90): 151 and 211 % of control
- T/C (dose: 0.02 mg/kg/injection, schedule: Q01DX009 (ip), vehicle: water, evaluated on day 93): 182 % of control
- T/C (dose: 0.02 mg/kg/injection, schedule: Q01DX009 (ip), vehicle: water, evaluated on day 94): 252 % of control
- T/C (dose: 0.02 mg/kg/injection, schedule: Q01DX009 (ip), vehicle: water, evaluated on day 97): 207 % of control
- T/C (dose: 0.03 mg/kg/injection, schedule: Q01DX009 (ip), vehicle: water, evaluated on day 4): 273 % of control
- T/C (dose: 0.03 mg/kg/injection, schedule: Q01DX009 (ip), vehicle: water, evaluated on day 5): 142, 182, 184 (2×), 187, 197, 209, 227, 228, 239 % of control
- T/C (dose: 0.03 mg/kg/injection, schedule: Q01DX009 (ip), vehicle: water, evaluated on day 30): 166, 181, 191, 230 % of control
- T/C (dose: 0.03 mg/kg/injection, schedule: Q01DX009 (ip), vehicle: water, evaluated on day 43): 184 % of control
- T/C (dose: 0.03 mg/kg/injection, schedule: Q01DX009 (ip), vehicle: water, evaluated on day 44): 142 % of control
- T/C (dose: 0.03 mg/kg/injection, schedule: Q01DX009 (ip), vehicle: water, evaluated on day 53): 209 % of control
- T/C (dose: 0.03 mg/kg/injection, schedule: Q01DX009 (ip), vehicle: water, evaluated on day 87): 239 % of control
- T/C (dose: 0.03 mg/kg/injection, schedule: Q01DX009 (ip), vehicle: water, evaluated on day 90): 182 and 273 % of control
- T/C (dose: 0.03 mg/kg/injection, schedule: Q01DX009 (ip), vehicle: water, evaluated on day 93): 228 % of control
- T/C (dose: 0.03 mg/kg/injection, schedule: Q01DX009 (ip), vehicle: water, evaluated on day 97): 227 % of control
- T/C (dose: 0.04 mg/kg/injection, schedule: Q01DX009 (ip), vehicle: water, evaluated on day 4): 255 % of control
- T/C (dose: 0.04 mg/kg/injection, schedule: Q01DX009 (ip), vehicle: water, evaluated on day 5): 83, 118, 168, 184, 198, 200 (2×), 203, 210, 222, 234, 279 % of control
- T/C (dose: 0.04 mg/kg/injection, schedule: Q01DX009 (ip), vehicle: water, evaluated on day 43): 176 % of control [7 of 8 alive]
- T/C (dose: 0.04 mg/kg/injection, schedule: Q01DX009 (ip), vehicle: water, evaluated on day 44): 203 % of control
- T/C (dose: 0.04 mg/kg/injection, schedule: Q01DX009 (ip), vehicle: water, evaluated on day 53): 234 % of control
- T/C (dose: 0.04 mg/kg/injection, schedule: Q01DX009 (ip), vehicle: water, evaluated on day 67): 200 % of control
- T/C (dose: 0.04 mg/kg/injection, schedule: Q01DX009 (ip), vehicle: water, evaluated on day 87): 222 % of control
- T/C (dose: 0.04 mg/kg/injection, schedule: Q01DX009 (ip), vehicle: water, evaluated on day 90): 184 and 255 % of control
- T/C (dose: 0.04 mg/kg/injection, schedule: Q01DX009 (ip), vehicle: water, evaluated on day 93): 210 % of control
- T/C (dose: 0.04 mg/kg/injection, schedule: Q01DX009 (ip), vehicle: water, evaluated on day 97): 279 % of control
- survivor count (dose: 0.04 mg/kg/injection, schedule: Q01DX009 (ip), vehicle: water): 8 of 8
- T/C (dose: 0.04 mg/kg/injection, schedule: Q04DX003 (ip), vehicle: saline): 137 % of control
- T/C (dose: 0.05 mg/kg/injection, schedule: Q01DX009 (ip), vehicle: water, evaluated on day 4): 247 % of control
- T/C (dose: 0.05 mg/kg/injection, schedule: Q01DX009 (ip), vehicle: water, evaluated on day 5): 81, 159, 176, 218, 225, 230, 237, 241, 290, 301, 307 % of control
- T/C (dose: 0.05 mg/kg/injection, schedule: Q01DX009 (ip), vehicle: water, evaluated on day 30): 96, 160, 202, 216 % of control
- T/C (dose: 0.05 mg/kg/injection, schedule: Q01DX009 (ip), vehicle: water, evaluated on day 44): 237 % of control
- T/C (dose: 0.05 mg/kg/injection, schedule: Q01DX009 (ip), vehicle: water, evaluated on day 53): 241 % of control
- T/C (dose: 0.05 mg/kg/injection, schedule: Q01DX009 (ip), vehicle: water, evaluated on day 87): 290 % of control
- T/C (dose: 0.05 mg/kg/injection, schedule: Q01DX009 (ip), vehicle: water, evaluated on day 90): 218 and 247 % of control
- T/C (dose: 0.05 mg/kg/injection, schedule: Q01DX009 (ip), vehicle: water, evaluated on day 93): 307 % of control
- T/C (dose: 0.05 mg/kg/injection, schedule: Q01DX009 (ip), vehicle: water, evaluated on day 97): 225 % of control
- survivor count (dose: 0.05 mg/kg/injection, schedule: Q01DX009 (ip), vehicle: water): 8 of 8
- T/C (dose: 0.06 mg/kg/injection, schedule: Q01DX009 (ip), vehicle: water, evaluated on day 4): 376 % of control
- T/C (dose: 0.06 mg/kg/injection, schedule: Q01DX009 (ip), vehicle: water, evaluated on day 5): 70, 80, 97, 99, 111, 220, 221, 233, 271, 306, 350 % of control
- T/C (dose: 0.06 mg/kg/injection, schedule: Q01DX009 (ip), vehicle: water, evaluated on day 44): 220 % of control
- T/C (dose: 0.06 mg/kg/injection, schedule: Q01DX009 (ip), vehicle: water, evaluated on day 53): 306 % of control
- T/C (dose: 0.06 mg/kg/injection, schedule: Q01DX009 (ip), vehicle: water, evaluated on day 87): 233 % of control
- T/C (dose: 0.06 mg/kg/injection, schedule: Q01DX009 (ip), vehicle: water, evaluated on day 90): 111 and 376 % of control
- T/C (dose: 0.06 mg/kg/injection, schedule: Q01DX009 (ip), vehicle: water, evaluated on day 93): 350 % of control
- T/C (dose: 0.06 mg/kg/injection, schedule: Q01DX009 (ip), vehicle: water, evaluated on day 97): 99 % of control
- survivor count (dose: 0.06 mg/kg/injection, schedule: Q01DX009 (ip), vehicle: water): 8 of 8 (2×)
- T/C (dose: 0.06 mg/kg/injection, schedule: Q04DX003 (ip), vehicle: saline + alcohol): 141 % of control
- T/C (dose: 0.08 mg/kg/injection, schedule: Q01DX009 (ip), vehicle: water, evaluated on day 5): 94, 99, 101 % of control
- T/C (dose: 0.08 mg/kg/injection, schedule: Q01DX009 (ip), vehicle: water, evaluated on day 67): 101 % of control
- T/C (dose: 0.08 mg/kg/injection, schedule: Q04DX003 (ip), vehicle: saline): 145 % of control
- survivor count (dose: 0.09 mg/kg/injection, schedule: Q01DX009 (ip), vehicle: water): 7 of 8
- survivor count (dose: 0.1 mg/kg/injection, schedule: Q01DX005 (ip), vehicle: saline + alcohol): 6 of 6
- T/C [1]: 172 and 189 % of control
- survivor count [1]: 6 of 6
- survivor count (dose: 0.13 mg/kg/injection, schedule: Q01DX009 (ip), vehicle: water): 3 of 3
- T/C (dose: 0.2 mg/kg/injection, schedule: Q01DX001 (ip), vehicle: water, evaluated on day 5): 166 and 187 % of control
- T/C (dose: 0.2 mg/kg/injection, schedule: Q01DX001 (ip), vehicle: water, evaluated on day 35): 166 % of control
- T/C (dose: 0.2 mg/kg/injection, schedule: Q01DX001 (ip), vehicle: water, evaluated on day 45): 187 % of control
- survivor count (dose: 0.2 mg/kg/injection, schedule: Q01DX005 (ip), vehicle: saline + alcohol): 4 of 6
- survivor count (dose: 0.2 mg/kg/injection, schedule: Q01DX009 (ip), vehicle: water): 6 of 6
- survivor count (dose: 0.25 mg/kg/injection, schedule: Q01DX009 (ip), vehicle: water): 3 of 3
- T/C (dose: 0.3 mg/kg/injection, schedule: Q01DX001 (ip), vehicle: water, evaluated on day 5): 192 and 201 % of control
- T/C (dose: 0.3 mg/kg/injection, schedule: Q01DX001 (ip), vehicle: water, evaluated on day 35): 201 % of control
- T/C (dose: 0.3 mg/kg/injection, schedule: Q01DX001 (ip), vehicle: water, evaluated on day 45): 192 % of control
